Data published in article PMC5130001.
These are yes or no findings as the source states them, for the method shown. Binding seen in cells or lysates may run through a third protein. Some binding calls cover weakened binding; strength is not graded here.

The chains behind the UniProt entries cited, without tags or fusion partners. Residues count along the entry.
UniProt P05556: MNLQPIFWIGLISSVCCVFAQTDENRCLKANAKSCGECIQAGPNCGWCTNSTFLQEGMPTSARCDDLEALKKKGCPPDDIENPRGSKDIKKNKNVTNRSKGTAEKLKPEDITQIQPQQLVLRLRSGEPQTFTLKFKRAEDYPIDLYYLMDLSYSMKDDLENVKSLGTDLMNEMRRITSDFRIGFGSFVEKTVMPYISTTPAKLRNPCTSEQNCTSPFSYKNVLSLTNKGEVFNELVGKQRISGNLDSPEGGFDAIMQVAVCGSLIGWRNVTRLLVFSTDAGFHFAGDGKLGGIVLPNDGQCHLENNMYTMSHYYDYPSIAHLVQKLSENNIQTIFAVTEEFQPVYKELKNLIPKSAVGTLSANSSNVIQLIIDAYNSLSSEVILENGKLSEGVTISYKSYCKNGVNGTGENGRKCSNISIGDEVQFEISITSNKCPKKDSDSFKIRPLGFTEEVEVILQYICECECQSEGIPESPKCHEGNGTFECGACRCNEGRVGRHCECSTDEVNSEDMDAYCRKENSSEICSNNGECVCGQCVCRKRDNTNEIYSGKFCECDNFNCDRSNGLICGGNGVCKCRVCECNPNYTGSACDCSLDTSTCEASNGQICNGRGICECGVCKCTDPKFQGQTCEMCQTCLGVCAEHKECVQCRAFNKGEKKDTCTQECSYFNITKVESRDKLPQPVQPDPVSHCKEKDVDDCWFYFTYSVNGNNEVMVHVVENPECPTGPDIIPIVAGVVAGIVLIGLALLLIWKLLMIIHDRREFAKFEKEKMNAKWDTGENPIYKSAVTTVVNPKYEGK
UniProt P18564, residues 22-788: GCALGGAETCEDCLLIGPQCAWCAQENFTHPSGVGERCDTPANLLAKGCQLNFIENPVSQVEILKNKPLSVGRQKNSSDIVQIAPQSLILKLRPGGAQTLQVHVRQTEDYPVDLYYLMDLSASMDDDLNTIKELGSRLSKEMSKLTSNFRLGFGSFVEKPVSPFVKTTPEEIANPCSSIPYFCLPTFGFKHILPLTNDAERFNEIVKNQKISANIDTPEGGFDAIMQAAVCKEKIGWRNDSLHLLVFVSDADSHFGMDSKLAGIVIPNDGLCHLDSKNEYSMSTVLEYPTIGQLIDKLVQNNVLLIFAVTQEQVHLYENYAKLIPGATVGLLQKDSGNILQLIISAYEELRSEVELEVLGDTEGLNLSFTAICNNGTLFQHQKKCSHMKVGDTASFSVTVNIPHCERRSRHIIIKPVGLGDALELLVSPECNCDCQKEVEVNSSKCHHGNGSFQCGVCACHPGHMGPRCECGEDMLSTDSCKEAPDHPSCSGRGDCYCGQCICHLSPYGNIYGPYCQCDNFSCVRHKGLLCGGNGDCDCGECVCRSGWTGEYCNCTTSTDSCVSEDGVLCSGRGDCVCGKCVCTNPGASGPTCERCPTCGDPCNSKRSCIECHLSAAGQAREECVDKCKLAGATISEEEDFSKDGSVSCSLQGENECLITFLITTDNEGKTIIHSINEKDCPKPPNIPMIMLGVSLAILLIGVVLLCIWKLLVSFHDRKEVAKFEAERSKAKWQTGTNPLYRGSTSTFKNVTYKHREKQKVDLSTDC
UniProt Q12791: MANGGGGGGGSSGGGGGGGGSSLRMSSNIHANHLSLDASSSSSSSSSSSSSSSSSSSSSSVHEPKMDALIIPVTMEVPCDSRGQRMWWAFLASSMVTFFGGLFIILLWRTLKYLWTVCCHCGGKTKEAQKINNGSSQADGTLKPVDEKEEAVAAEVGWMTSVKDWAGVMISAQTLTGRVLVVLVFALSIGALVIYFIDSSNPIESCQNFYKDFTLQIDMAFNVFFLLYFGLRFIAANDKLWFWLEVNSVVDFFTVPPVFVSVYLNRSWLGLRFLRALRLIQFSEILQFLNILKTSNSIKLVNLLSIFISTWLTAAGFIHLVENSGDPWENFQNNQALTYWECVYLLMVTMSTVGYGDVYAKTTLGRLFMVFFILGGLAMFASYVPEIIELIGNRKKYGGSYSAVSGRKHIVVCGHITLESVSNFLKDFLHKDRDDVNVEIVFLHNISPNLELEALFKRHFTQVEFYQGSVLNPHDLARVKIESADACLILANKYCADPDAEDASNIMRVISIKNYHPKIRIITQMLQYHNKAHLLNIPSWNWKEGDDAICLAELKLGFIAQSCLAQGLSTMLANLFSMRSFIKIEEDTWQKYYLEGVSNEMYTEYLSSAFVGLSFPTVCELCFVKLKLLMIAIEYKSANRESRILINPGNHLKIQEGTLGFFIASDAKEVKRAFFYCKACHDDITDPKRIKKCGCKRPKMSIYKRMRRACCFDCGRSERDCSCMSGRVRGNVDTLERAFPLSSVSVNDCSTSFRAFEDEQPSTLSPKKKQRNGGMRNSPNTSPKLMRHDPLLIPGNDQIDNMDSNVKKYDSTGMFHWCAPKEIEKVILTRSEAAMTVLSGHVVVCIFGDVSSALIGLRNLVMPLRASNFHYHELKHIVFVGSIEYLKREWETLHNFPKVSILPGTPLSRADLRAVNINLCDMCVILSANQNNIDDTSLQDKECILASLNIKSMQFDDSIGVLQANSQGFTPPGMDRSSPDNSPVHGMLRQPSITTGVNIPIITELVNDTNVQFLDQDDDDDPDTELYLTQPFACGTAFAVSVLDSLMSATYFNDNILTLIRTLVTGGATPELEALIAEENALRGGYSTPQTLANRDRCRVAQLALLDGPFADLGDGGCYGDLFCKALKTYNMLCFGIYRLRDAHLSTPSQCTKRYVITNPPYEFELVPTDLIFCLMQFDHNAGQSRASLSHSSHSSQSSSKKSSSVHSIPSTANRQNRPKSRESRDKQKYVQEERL
UniProt Q05397: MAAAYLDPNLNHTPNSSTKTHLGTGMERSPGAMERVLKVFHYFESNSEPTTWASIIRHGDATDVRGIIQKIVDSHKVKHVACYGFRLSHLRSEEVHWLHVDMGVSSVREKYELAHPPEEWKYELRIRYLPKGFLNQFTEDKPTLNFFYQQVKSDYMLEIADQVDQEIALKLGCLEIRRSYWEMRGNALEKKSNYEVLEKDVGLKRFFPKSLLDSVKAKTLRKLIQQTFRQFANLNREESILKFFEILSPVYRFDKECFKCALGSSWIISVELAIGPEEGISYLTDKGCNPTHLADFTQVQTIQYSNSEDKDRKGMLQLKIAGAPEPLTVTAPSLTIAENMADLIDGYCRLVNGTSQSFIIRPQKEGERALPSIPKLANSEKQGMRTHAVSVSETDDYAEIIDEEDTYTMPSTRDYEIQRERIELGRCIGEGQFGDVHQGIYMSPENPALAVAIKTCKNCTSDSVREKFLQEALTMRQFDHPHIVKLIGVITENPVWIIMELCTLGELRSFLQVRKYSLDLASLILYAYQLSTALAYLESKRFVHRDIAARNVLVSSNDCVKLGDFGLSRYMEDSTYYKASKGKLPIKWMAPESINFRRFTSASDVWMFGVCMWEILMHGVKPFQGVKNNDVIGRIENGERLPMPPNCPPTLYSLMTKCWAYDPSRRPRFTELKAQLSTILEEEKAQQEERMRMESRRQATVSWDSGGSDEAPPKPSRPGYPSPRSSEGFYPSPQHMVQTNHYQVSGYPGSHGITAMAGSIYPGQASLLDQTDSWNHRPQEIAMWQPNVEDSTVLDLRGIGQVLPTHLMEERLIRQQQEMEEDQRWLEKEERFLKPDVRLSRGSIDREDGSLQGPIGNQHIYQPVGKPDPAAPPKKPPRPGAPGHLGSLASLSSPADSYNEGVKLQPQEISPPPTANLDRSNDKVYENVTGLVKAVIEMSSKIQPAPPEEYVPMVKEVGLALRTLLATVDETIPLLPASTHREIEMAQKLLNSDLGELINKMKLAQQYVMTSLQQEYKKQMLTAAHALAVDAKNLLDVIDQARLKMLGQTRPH

Columns and labels:
Assay in all cases: co-IP; Pierce classic IP kit; protein extracts of PC3 cells (transfected with BKCa or vector, or infected with BK-shRNA or SC-shRNA; vitronectin stimulation in Supplementary Figure 4); immune complexes analysed by western blot; beads without protein input as control
[1] = biological target: β1 integrin (human (endogenous in PC3)) (UniProt P05556)
[2] = biological target: β6 integrin (human (endogenous in PC3)) (UniProt P18564)
[3] = biological target: BKCa, large conductance calcium activated potassium channel (human (endogenous in PC3)) (UniProt Q12791)

Row | binding [1] | binding [2] | binding [3] | Substance
1 | binds weakly | binds weakly | – | BKCa, large conductance calcium activated potassium channel (from UniProt Q12791 1-1236)
2 | – | – | binds | focal adhesion kinase (FAK) (from UniProt Q05397 1-1052)
